Some of the results follow. Shown are side measurements of this screen, not its main read-out; they come without a call. The list favours compounds with an active or inconclusive main result. The note in brackets gives the kind of curve behind each potency; many fits are weak.

The record followed here is PubChem BioAssay AID1487 (National Center for Advancing Translational Sciences (NCATS), 2009).

The experiment is described as follows: qHTS Assay for Modulators of Lamin A Splicing. The following applies: HeLa LMNA splicing GFP/RFP minigene ratio, 48 h. Summed up:
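S3 HeLa stable clones carrying a lamin A-EGFP splicing minigene plus DsRed2 were seeded at 600 cells/well in Opti-MEM with 2% FBS, pin-dosed and incubated 48 h at 37°C. Acumen cytometry (488 nm) gave the GFP/RFP total-intensity ratio.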
(Quantitative high-throughput screening tests each substance at several concentrations.)

The mark [1] stands for this setting: measured here: RFP viability control channel.
The mark [2] stands for this setting: measured here: GFP splicing reporter channel.

Consider `Cc1ccc(C)c(C2=CSC3=NCCN23)c1`, for which the AC50 (commonly the midpoint of the concentration-response curve, whichever way the signal moves) under setting [1] was 8.91 µM [rising, partial curve].

For `O=C(Nc1cccc(F)c1)N1CCN(C/C=C/c2ccccc2)CC1`, the AC50 under setting [1] was 14.1 µM [rising, single point]. Regarding `CC[C@@H](C)[C@H]1O[C@]2(CC[C@@H]1C)C[C@@H]1C[C@@H](C/C=C(\C)[C@@H](O[C@H]3C[C@H](OC)[C@@H](O[C@H]4C[C@H](OC)[C@@H](O)[C@H](C)O4)[C@H](C)O3)[C@@H](C)/C=C/C=C3\CO[C@@H]4[C@H](O)C(C)=C[C@@H](C(=O)O1)[C@]34O)O2`, the AC50 was 5.62 µM [falling, full curve] under setting [2] and 6.31 µM [falling, full curve] under setting [1]. In the case of `CCOC(=O)c1sc(NC(=S)NC(=O)CC(C)C)cc1C`, the AC50 under setting [2] was 12.6 µM [rising, single point]. `CC(=NCCCn1ccnc1)c1c(C)[nH]n(-c2ccc([N+](=O)[O-])cc2)c1=O`: the AC50 under setting [2] is 20 µM [falling, partial curve, poor fit].

In the case of `CCOc1ccc(-c2cc(C(=O)NCc3ccccc3Cl)c3ccccc3n2)cc1`, the AC50 is, setting by setting: under setting [2], 0.794 µM [falling, full curve, poor fit]; under setting [1], 0.708 µM [falling, full curve, poor fit]. `S=C1NC=NC2N=CNC12` (configuration not stated): the AC50 runs as follows: under setting [2], 0.0562 µM [rising, full curve, poor fit]; under setting [1], 0.0631 µM [rising, full curve, poor fit]. Regarding `Clc1ccc2ncc(-c3nnnn3-c3ccccc3)c(-c3ccccc3)c2c1`, the AC50 is, setting by setting: under setting [2], 7.08 µM [falling, single point]; under setting [1], 35.5 µM [falling, single point].

On to `Cc1ccc(N2CCN(C(=O)c3ccccc3F)CC2)c(C)c1`, for which the AC50 under setting [1] was 14.1 µM [rising, partial curve]. Take `C/C(=N/NS(=O)(=O)c1ccc(Cl)cc1)c1cccc(NC(=O)c2ccc(Cl)cc2Cl)c1`: the AC50 was 35.5 µM [falling, single point] under setting [2] and 12.6 µM [falling, single point] under setting [1].

With `COc1ccc(C(=O)Oc2cccc3cccnc23)cc1[N+](=O)[O-]`, the AC50 under setting [2] was 10 µM [falling, partial curve, poor fit] and the AC50 under setting [1] is 12.6 µM [falling, partial curve, poor fit]. For `Cc1ccc(-c2ccc(SCC(=O)N3CCCc4ccccc43)nn2)cc1`, the AC50 was 31.6 µM [rising, single point] under setting [2] and 31.6 µM [rising, single point] under setting [1]. `COCCCNC(=O)c1ccc(-n2c(-c3ccccc3)cc3c2CCCC3)cc1`: the AC50 under setting [2] is 17.8 µM [falling, partial curve, poor fit]. On to `Cc1nnc(SCc2ccc(Cl)cc2)nc1/C=C/N(C)C`, for which the AC50 under setting [2] was 1.41 µM [falling, partial curve] and the AC50 under setting [1] was 1.41 µM [falling, partial curve, poor fit]. In the case of `O=C(NC(=S)N1CCN(c2ccc(F)cc2)CC1)c1cccs1`, the AC50 under setting [1] was 3.55 µM [falling, single point].

Consider `COc1ccc(O)c(/C=N/NC(=O)c2ccc(OCc3cccc(Br)c3)cc2)c1`, for which the AC50 under setting [2] is 3.98 µM [falling, full curve]. Regarding `OC[C@H]1O[C@@H]2O[C@H]3[C@H](O)[C@@H](O)[C@@H](O[C@H]4[C@H](O)[C@@H](O)[C@@H](O[C@H]5[C@H](O)[C@@H](O)[C@@H](O[C@H]6[C@H](O)[C@@H](O)[C@@H](O[C@H]7[C@H](O)[C@@H](O)[C@@H](O[C@H]8[C@H](O)[C@@H](O)[C@@H](O[C@H]1[C@H](O)[C@H]2O)O[C@@H]8CO)O[C@@H]7CO)O[C@@H]6CO)O[C@@H]5CO)O[C@@H]4CO)O[C@@H]3CO`, the AC50 under setting [2] is 1.41 µM [falling, partial curve, poor fit] and the AC50 under setting [1] was 6.31 µM [rising, single point]. On to `COc1ccc(C(CC(=O)O)NC(=O)c2cc3cc(Br)ccc3oc2=O)cc1OC` (configuration not stated), for which the AC50 under setting [1] is 0.0141 µM [falling, full curve, poor fit].

Turning to `C=CCn1c(C(C)C)nc2ccccc21`, the AC50 under setting [1] was 1.26 µM [falling, partial curve].

With `O=C(Nc1cccc([N+](=O)[O-])c1)c1ccc2c(c1)OCO2`, the concentration at half-maximal activity (AC50) under setting [1] is 31.6 µM [rising, single point]. On to `C/C(=N\Nc1nc2ccccc2[nH]1)c1ccc(N2CCOCC2)cc1`, for which the AC50 under setting [2] was 12.6 µM [falling, partial curve, poor fit].

With `Cc1[nH]c2ccccc2c1C(=O)CSc1nc2ccccc2c(=O)n1CCCN1CCOCC1`, the concentration at half-maximal activity (AC50) under setting [1] was 22.4 µM [rising, single point]. For the compound `Cc1ccc(CN2CCN(Cc3cn(C)nc3C)CC2CCO)o1` (configuration not stated), the AC50 runs as follows: under setting [2], 11.2 µM [falling, partial curve]; under setting [1], 11.2 µM [falling, partial curve].

On to `COc1ccc(/C=N/N=C2/NC(=O)C(c3ccccc3)S2)c(OC)c1` (configuration not stated), for which the AC50 under setting [1] is 7.08 µM [rising, partial curve]. For `Cc1ccc(C(=O)CNc2ccc(F)cc2)cc1`, the concentration at half-maximal activity (AC50) runs as follows: under setting [2], 1.26 µM [rising, partial curve]; under setting [1], 0.447 µM [rising, full curve, poor fit]. `C[C@@H]1[C@H](O)[C@@H](C)/C=C/C=C/C=C/C=C/C=C/C=C/C=C/[C@H](O[C@@H]2O[C@H](C)[C@@H](O)[C@H](N)[C@@H]2O)C[C@@H]2O[C@](O)(C[C@@H](O)C[C@@H](O)[C@H](O)CC[C@@H](O)C[C@@H](O)CC(=O)O[C@H]1C)C[C@H](O)[C@H]2C(=O)O`: under setting [2], the AC50 was 0.00708 µM [falling, partial curve, poor fit]. With `Cc1cccc(OCC(=O)N2CCN(C(=O)CCC3CCCC3)CC2)c1`, the AC50 by setting is: under setting [2], 2.82 µM [rising, full curve, poor fit]; under setting [1], 3.55 µM [rising, full curve, poor fit]. On to `CCc1ccc(NS(=O)(=O)c2c(-c3ccccc3)csc2C(=O)OC)cc1`, for which the concentration at half-maximal activity (AC50) under setting [1] was 2 µM [rising, partial curve]. On to `CCOC(=O)CS(=O)(=O)c1nc(-c2ccccc2)cc(C(F)(F)F)n1`, for which the AC50 under setting [2] was 35.5 µM [rising, single point]. Take `CS(=O)(=O)Nc1ccccc1C(=O)Nc1cccc(Cl)c1`: the AC50 under setting [1] was 20 µM [rising, partial curve, poor fit]. Consider `CCN(CC)c1nc(-c2ccccn2)nc(-c2ccccc2)c1C#N`, for which the AC50 under setting [2] is 1.12 µM [falling, partial curve, poor fit]. In the case of `COc1cc(C(=O)N/C(=C\c2cn(C)c3ccccc23)C(=O)NCCCO)cc(OC)c1OC`, the AC50 was 0.0398 µM [falling, full curve, poor fit] under setting [2] and 0.0398 µM [falling, full curve] under setting [1]. With `O=C(Nc1cccc(F)c1)c1cc(S(=O)(=O)N2CCC(C(=O)O)CC2)ccc1F`, the AC50 by setting is: under setting [2], 1.41 µM [falling, partial curve]; under setting [1], 1.41 µM [falling, full curve]. Regarding `O=C(N/N=C/c1cccs1)c1ccc(NC(=O)c2ccccc2Cl)cc1`, under setting [1], the AC50 was 12.6 µM [rising, single point].

As to `COc1ccc(C[C@H]2COC(=O)[C@@H]2Cc2ccc(OC3OC(CO)C(O)C(O)C3O)c(OC)c2)cc1OC` (some centres not stated), the AC50 under setting [1] is 7.94 µM [rising, partial curve]. Turning to `CCOC(=O)c1ccccc1NC(=O)Cn1c(=O)n(-c2ccc(CC)cc2)c(=O)c2c(C)c(C(=O)N(C)C)sc21`, the AC50 under setting [1] was 2.82 µM [falling, partial curve, poor fit]. On the same count and under the same terms, the figure for `CCOc1ccccc1CNC(=O)c1ccc2c(c1)nc1n2CCC(C)C1` (configuration not stated) is 22.4 µM [rising, single point]. `Cc1ccc(SCCNS(=O)(=O)c2ccc3c(c2)OCCO3)cc1`: the AC50 under setting [1] is 31.6 µM [rising, single point]. On the same count and under the same terms, the figure for `COc1ccc(/C=C/C(=O)OCCCN(C)C)cc1` is 0.112 µM [falling, partial curve, poor fit]; for `O=C(Nc1ccc(F)c(Cl)c1)C1CCN(S(=O)(=O)c2ccc3c(c2)CCCN3C(=O)C2CCC2)CC1` it is 1 µM [falling, full curve, poor fit]. On to `COc1ccccc1N1CCN(Cc2ccc(O)c3ncccc23)CC1`, for which, under setting [1], the AC50 was 11.2 µM [rising, partial curve]. On to `CC[C@H]1NC(=O)c2cc(S(N)(=O)=O)c(Cl)cc2N1`, for which the half-maximal activity concentration (AC50) is 14.1 µM [falling, single point] under setting [2] and 0.0447 µM [rising, full curve, poor fit] under setting [1]. On to `O=C(Cn1c(SCC(=O)Nc2ccc(F)cc2)nc2ccccc21)NCc1ccc(Cl)cc1`, for which the half-maximal activity concentration (AC50) under setting [1] was 17.8 µM [falling, single point].

As to `Cc1nn(Cc2c(F)c(F)c(F)c(F)c2F)c(C)c1NC(=O)c1ccc(COc2ccc(Cl)cc2Cl)o1`, the AC50 was 1.12 µM [rising, partial curve] under setting [2] and 11.2 µM [rising, partial curve] under setting [1]. `CCN(CC1COc2ccccc2O1)C(=S)Nc1ccccc1` (configuration not stated): under setting [1], the AC50 was 15.8 µM [rising, single point]. On to `Cc1ccc(S(=O)(=O)N(C)c2c(C)ccc(S(=O)(=O)NC(C)(C)C)c2C)cc1`, for which, under setting [1], the AC50 was 22.4 µM [falling, single point].

On to `CC(=O)c1cccc(N=c2scc(-c3ccc(S(=O)(=O)N4CCOCC4)cc3)n2CCO)c1`, for which the AC50 is 12.6 µM [rising, partial curve] under setting [2] and 1.12 µM [rising, full curve] under setting [1].

`COc1cccc(/C=N/NC(=O)c2c(-c3ccccc3)noc2C)c1O`: the AC50 is 3.16 µM [falling, full curve] under setting [2] and 6.31 µM [falling, partial curve] under setting [1].

Turning to `Cc1ccc2nc(N=C(N)N)nc(C)c2c1`, the AC50 under setting [2] was 15.8 µM [falling, partial curve, poor fit].
